# Assay results from PubChem BioAssay AID651640 (Broad Institute, 2012).
# In all, about 350,000 compounds went through this assay and about 6,000 (1.7%) were called active. Inconclusive means that the source gave no clear call. Such entries were picked first, then a sample of the others. Rule as the data show it: active = CPE inhibition above about 20% (passing the limit was not always enough); inconclusive = no clear call, values can overlap the other calls; tested in BHK-21 cells.
# Experiment: protection of cells from dengue 2 killing – plate reader, single concentration, primary screen (AID 651640);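 also: 0% = median of neutral control wells and 100% = median of positive control wells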
# Details: DENV2-infected cells, cytopathic effect rescue, at 9.99 µM, hits give high values
row,SMILES,CPE inhibition
1,CCC(=O)Nc1ccc2c(c1)OC[C@@H](C)N(C(=O)Cc1ccccn1)C[C@@H](C)[C@H](OC)CN(C)C2=O,inactive: 10.2%
2,CC(=O)C1=C(O)C(=O)N(c2cccc(C(=O)O)c2)C1c1ccccc1F (stereo not given),inconclusive: 63.1%
3,CO[C@H]1CN(C)C(=O)c2ccc(NS(=O)(=O)c3ccccc3)cc2OC[C@H](C)N(Cc2ccccn2)C[C@@H]1C,active: 35.6%
4,CN(C)CC(O)CN(c1ccccc1)c1ccccc1 (stereo not given),inconclusive: 24.3%
5,C[C@H]1CN([C@@H](C)CO)C(=O)c2cccc(NS(C)(=O)=O)c2O[C@@H]1CN(C)C(=O)NC1CCCCC1,inconclusive: 38.3%
6,COc1ccc(NC(=O)N(C)C[C@@H]2Oc3ccc(NC(=O)Cc4cn(C)c5ccccc45)cc3C(=O)N([C@@H](C)CO)C[C@H]2C)cc1,inconclusive: 24.2%
7,CC(C)(C)NC(=O)C(c1cc2ccccc2o1)n1c(=O)c(-c2ccco2)nc2ccccc21 (stereo not given),inconclusive: 24.1%
8,COc1ccc(S(=O)(=O)N(C)C[C@@H]2OCCCC[C@H](C)Oc3ccc(NS(=O)(=O)c4c(C)noc4C)cc3C(=O)N([C@H](C)CO)C[C@H]2C)cc1,active: 96.5%
9,O=C(CCC1CCN(C(=O)c2cncs2)CC1)Nc1ccccc1,inconclusive: 29.5%
10,CN(C)C(=O)c1ccc(-c2ccc([C@@H]3[C@@H](CO)N4CCCCN(S(C)(=O)=O)C[C@H]34)cc2)cc1,inactive: -10.9%
11,Cc1cccc(NC(=O)c2ncn3c2C(=O)NC[C@H]3C)c1,inconclusive: 41.8%
12,Cc1cc(Cl)c(Cl)cc1S(=O)(=O)NCCCn1ccnc1,inconclusive: 45.9%
13,COc1ccc(/C=N/Nc2cc(OC)ncn2)cc1,inactive: 0.692%
14,C[C@H]1CN([C@@H](C)CO)C(=O)c2cc(C#CC3CCCC3)cnc2O[C@@H]1CN(C)Cc1ccncc1,inconclusive: 47.6%
15,CS(=O)(=O)N1CCCCN2[C@@H](CO)[C@@H](c3ccc(C4=CCCC4)cc3)[C@@H]2C1,active: 29.2%
16,COCC(=O)N1CC2(C1)[C@H](c1ccccc1)[C@@H](CO)N2C(=O)NC1CCCC1,inactive: 9.83%
17,O=C(O)CSCC(=O)N1CCCN(c2nc3ccc(Cl)cc3s2)CC1,inconclusive: 24.2%
18,CCc1csc(CNC(=O)C2CCC(=O)N(Cc3cccc(OC)c3)C2)n1 (stereo not given),inconclusive: 26.8%
19,CC1CCc2c(N3CCC(O)CC3)c(F)cc3c(=O)c(C(=O)O)cn1c23 (stereo not given),inactive: -4.19%
20,CCC(C)CN1C(=O)CSCC1(C)C(=O)Nc1ccc2c(c1)OCCO2 (stereo not given),active: 31.4%
21,NC(N)=Nc1cc2ccccc2c2ccccc12,inactive: 3.38%
22,C[C@H]1CN([C@@H](C)CO)C(=O)Cc2cc(NS(=O)(=O)c3ccc(Cl)cc3)ccc2O[C@H]1CN(C)Cc1ccncc1,inactive: 3.17%
23,Cn1c(CNC(=O)c2ccccc2F)nnc1SCC(=O)c1ccccc1,inconclusive: 43.5%
24,CCOc1ccc(OCCC(=O)N(CC)CC(=O)NCc2cccs2)cc1,inactive: 10.1%

# A few values from the results shown:
# CCOc1ccc(OCCC(=O)N(CC)CC(=O)NCc2cccs2)cc1 – CPE inhibition: inactive: 10.1%
# Cc1cccc(NC(=O)c2ncn3c2C(=O)NC[C@H]3C)c1 – CPE inhibition: inconclusive: 41.8%
# CO[C@H]1CN(C)C(=O)c2ccc(NS(=O)(=O)c3ccccc3)cc2OC[C@H](C)N(Cc2ccccn2)C[C@@H]1C – CPE inhibition: active: 35.6%
# CCC(C)CN1C(=O)CSCC1(C)C(=O)Nc1ccc2c(c1)OCCO2 (stereo not given) – CPE inhibition: active: 31.4%
# O=C(O)CSCC(=O)N1CCCN(c2nc3ccc(Cl)cc3s2)CC1 – CPE inhibition: inconclusive: 24.2%

# More records follow:

row,SMILES,CPE inhibition
1,C[C@@H]1CCCCO[C@H](CN(C)S(=O)(=O)c2ccc(F)cc2)[C@@H](C)CN([C@@H](C)CO)C(=O)c2cc(NC(=O)Nc3cccc4ccccc34)ccc2O1,inactive: -8.87%
2,COc1ccc(CC(=O)NC2CCCCCC2)c(OC)c1,active: 63.8%
3,COc1ccccc1CCN=C(N)NS(=O)(=O)c1ccccc1,inconclusive: 42.2%
4,CC(=O)Nc1cccc(C(=O)OC(C)C(=O)NC(=O)NC2CCCCC2)c1 (stereo not given),active: 23.2%
5,Cc1ccc(-c2nc(NCCCN(C)C)c3ccccc3n2)cc1,inactive: 2.65%
6,C[C@H]1CCCCO[C@H](CN(C)CC2CC2)[C@@H](C)CN([C@@H](C)CO)C(=O)c2cc(NC(=O)Nc3ccc4c(c3)OCO4)ccc2O1,inactive: 8.51%
7,COc1ccccc1C#Cc1ccc2c(c1)O[C@@H](CN(C)Cc1cncnc1)[C@@H](C)CN([C@@H](C)CO)S2(=O)=O,inconclusive: 20.1%
8,COC(=O)[C@]12CCCCC=C1N(Cc1cccc3ccccc13)C(=O)[C@H](CC(=O)NCc1cccc(C(F)(F)F)c1)C2,inconclusive: 21.6%
9,C[C@H](CO)N1C[C@H](C)[C@@H](CN(C)C(=O)C2CCCCC2)Oc2ncc(-c3ccccc3)cc2C1=O,inconclusive: 21.7%
10,C[C@H](NC(=O)c1ncn(Cc2ccccc2)c1C(=O)N[C@@H](C)c1ccccc1)c1ccccc1,active: 75.4%
11,Cc1cn([C@H]2C[C@H](O)[C@@H](/C=C/C(=O)NCc3ccccc3)O2)c(=O)[nH]c1=O,inconclusive: 127%
12,C[C@H](O)C#Cc1ccc2c(c1)O[C@@H](CN(C)Cc1ccc(-c3ccccc3)cc1)[C@@H](C)CN([C@@H](C)CO)S2(=O)=O,inactive: -0.67%
13,O=C(CCS(=O)(=O)c1ccc(Cl)cc1)N1CCN(c2ccc(F)cc2)CC1,inconclusive: 23.2%
14,COc1cccc(-c2ccc3c(c2)[C@H]2[C@H](CCN2S(=O)(=O)c2ccccc2OC)[C@H](CO)N3)c1,inactive: -4.46%
15,O=C(C1CCCC1)N1CC2(C1)[C@H](c1ccccc1)[C@@H](CO)N2C(=O)NC1CCCC1,inactive: 18.3%
16,COc1cccc(-c2ncc3ccccc3c2COC(=O)CCCC(=O)O)c1,inconclusive: 26.6%
17,C[C@H](CO)N1C[C@H](C)[C@H](CN(C)C(=O)CCC(F)(F)F)OCc2cn(nn2)CCCC1=O,inconclusive: 47.5%
18,Cn1cccc1CC(=O)NNC(=O)Nc1ccc(F)cc1,inconclusive: 20.3%
19,CC(C)NC(=O)N(C)C[C@@H]1OCCCC[C@@H](C)Oc2ccc(NC(=O)Nc3ccccc3)cc2C(=O)N([C@@H](C)CO)C[C@@H]1C,inactive: -0.634%
20,N#C[C@@H]1[C@H](c2ccc(-c3cncnc3)cc2)[C@@H](CO)N1C(=O)CN1CCOCC1,active: 50.4%
21,COc1cccc(-c2cc(C(=O)NC3CCCCC3)no2)c1,inconclusive: 38.9%
22,C[C@H](CO)N1C[C@H](C)[C@@H](CN(C)Cc2ccc(-c3ccccc3)cc2)Oc2c(NC(=O)Nc3ccc(C(F)(F)F)cc3)cccc2C1=O,inconclusive: 21.7%
23,COc1ccc(S(=O)(=O)N(C)C[C@@H]2Oc3ccc(NC(=O)NC4CCCCC4)cc3C(=O)N([C@@H](C)CO)C[C@@H]2C)cc1,inconclusive: 22.3%
24,Nc1cc(=O)[nH]c(SCc2csc(-c3ccccc3)n2)n1,inconclusive: 21.4%

row,SMILES,CPE inhibition
1,NC(=O)c1cccc(-c2ccnc3c2CC(C(=O)NCC2CC2)O3)c1 (stereo not given),inconclusive: 21.1%
2,C[C@H]1CN([C@@H](C)CO)C(=O)c2cccc(NC(=O)Nc3ccc4c(c3)OCO4)c2O[C@H]1CN(C)Cc1ccccc1,inactive: 4.96%
3,CCN(CC)C(=O)COC(=O)c1cc(-c2ccco2)nc2ccccc12,inconclusive: 26.7%
4,COc1ccc(S(=O)(=O)NCCS(=O)(=O)N2CCN(c3ccccc3)CC2)cc1,inconclusive: 27.3%
5,COc1ccc(S(=O)(=O)Nc2cccc3c2O[C@@H](CN(C)Cc2ccncc2)[C@H](C)CN([C@@H](C)CO)C3=O)cc1,inconclusive: 41.9%
6,CC(C)NC(=O)Nc1ccc2c(c1)C(=O)N([C@@H](C)CO)C[C@@H](C)[C@H](CN(C)Cc1ccc3c(c1)OCO3)O2,inconclusive: 47.7%
7,Cc1cc(Nc2n[nH]c(N)c2C#N)ccc1F,inconclusive: 37.5%
8,C[C@@H]1CCCCO[C@@H](CN(C)C(=O)Nc2ccc(F)cc2)[C@@H](C)CN([C@@H](C)CO)C(=O)c2cc(NC(=O)Nc3ccc(C(F)(F)F)cc3)ccc2O1,inactive: -3.26%
9,CC(C)NC(=O)Nc1ccc2c(c1)C(=O)N([C@@H](C)CO)C[C@@H](C)[C@@H](CN(C)C(=O)c1ccncc1)OCCCC[C@@H](C)O2,inconclusive: 31.3%
10,CO[C@@H]1CN(C)C(=O)c2ccc(NC(=O)c3cccc(F)c3)cc2OC[C@@H](C)NC[C@H]1C,active: 30.7%
11,CO[C@H](CN(C)Cc1ccc2c(c1)OCO2)[C@@H](C)CN(C(=O)c1ccccc1)[C@H](C)CO,inactive: 0.452%
12,Cc1cccc(S(=O)(=O)N2C[C@@H](O)COC[C@@H]3O[C@H](CC(=O)N4CCN(C)CC4)CC[C@H]32)c1,inactive: 4.36%
13,O=S(=O)(c1ccc(Br)cc1)c1nc(-c2ccco2)oc1NCCCn1ccnc1,inconclusive: 52.4%
14,CC(C)c1cn(CC[C@@H]2CC[C@@H](NS(=O)(=O)c3ccccc3)[C@@H](CO)O2)nn1,inconclusive: 27.9%
15,Fc1cccc(Cc2c(-c3cccc(Cl)c3)nc3c(Cl)cc(C(F)(F)F)cn23)c1,inconclusive: 32.9%
16,COc1cccc(CNC(=O)CCSCc2ccccc2F)c1,inactive: -0.635%
17,O=C1NC(Cc2ccccc2)c2nc3ccc(Br)cc3c(=O)n2-c2cc(Cl)ccc21 (stereo not given),inconclusive: 51.9%
18,O=C(C[C@@H]1CC[C@@H]2[C@H](COC[C@H](O)CN2Cc2ccc(C(F)(F)F)cc2)O1)N1CCc2ccccc2C1,inactive: 0.147%
19,Cc1cccc(-c2ccc([C@@H]3[C@@H](CO)N4CCCCN(S(=O)(=O)c5cccs5)C[C@H]34)cc2)c1,active: 32.7%
20,C[C@@H]1CN([C@H](C)CO)C(=O)c2cc(NC(=O)Nc3ccc(C(F)(F)F)cc3)ccc2O[C@H]1CN(C)S(=O)(=O)c1ccccc1,active: 33.1%
21,CC(C)(C)C1CCc2onc(C(=O)Nc3ccc4c(c3)OCO4)c2C1 (stereo not given),inconclusive: 25.2%
22,Cc1ccc2nc(C(=O)N3CCc4c([nH]c5ccccc45)C3c3ccccn3)cn2c1 (stereo not given),inactive: 4.45%
